Earlier results in paper PMC11267547, “Advancing drug discovery through assay development: a survey of tool compounds within the human solute carrier superfamily” (Frontiers in Pharmacology, 2024).

Legend:
[1] = system: CYP3A4; details: cited from earlier work
[2] = system: KCNH2; details: cited from earlier work

In the case of `Nc1nc2ccc(OC(F)(F)F)cc2s1` [Riluzole], the other_targets_act [1] is given as 5.66, 5.0, 4.6, 4.6, 4.6, 4.6, 4.6 and the other_targets_act [2] is given as 5.66, 5.0, 4.6, 4.6, 4.6, 4.6, 4.6.
